Source: publication PMC11947619, “Molecular mechanism of Mad2 conformational conversion promoted by the Mad2‐interaction motif of Cdc20” (Protein Science : A Publication of the Protein Society, 2025)
These are yes or no findings as the source states them, for the method shown.

Sequences of proteins named here, by UniProt entry; tags and fusion partners are left off. A change or cut given only in a name is not applied to a line headed by its entry.
UniProt Q13257: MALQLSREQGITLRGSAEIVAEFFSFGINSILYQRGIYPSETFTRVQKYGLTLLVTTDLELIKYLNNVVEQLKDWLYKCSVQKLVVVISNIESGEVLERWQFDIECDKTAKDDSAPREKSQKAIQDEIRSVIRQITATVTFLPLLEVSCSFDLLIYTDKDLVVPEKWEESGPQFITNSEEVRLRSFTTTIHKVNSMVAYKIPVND

Molecular target: T1, Mad2^R133A (human, UniProt Q13257 1-205, R133A)
T1 construct: Mad2, human, full-length, R133A; Tag is followed by a TEV site; 15N-labelled for NMR; Starts in the open state; also called O-Mad2^R133A; C-Mad2^R133A; source: E. coli BL21 Star (DE3) with pRARE, purified
Assay: time-resolved NMR (series of 2D 1H,15N HSQC spectra); 100 μM 15N Mad2 variant, MIM peptide at two-fold molar excess, 25°C, 20 mM HEPES pH 7.0, 100 mM NaCl, 1 mM TCEP, 5% D2O; Trp75 and Trp167 indole NH resonances as reporters of the ligand-bound closed state; 12 min per spectrum, up to 24 h; both purified

binding: no binding (tested: after two hours)
Binder: QNAPEGYQNRLKVLY [Cdc20^MIM-138-152]
